PubChem BioAssay AID493014 (National Center for Advancing Translational Sciences (NCATS), 2011)
Some of the results follow. Shown are side measurements of this screen, not its main read-out; they come without a call. Compounds called inactive in the main read-out are mostly missing here. Words in brackets tell the shape of the fitted curve; partial curves, single points and poor fits give uncertain potencies.

Assay: qHTS Assay to Find Inhibitors of Chronic Active B-Cell Receptor Signaling
Settings: ABC-DLBCL IkBa-CBG/CBR reporter, luminescence ratio (green luciferase fused to IkBa over red control in TMD8 lymphoma cells), 4 h
Method in brief: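 Concentration-response series (up to 46 uM) were applied to TMD8 dual-reporter cells for 4 h at 37C with doxycycline. Green/red ratio, after filter-overlap correction, defined %Activity; red signal alone was normalised to basal cells and zero luminescence.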

[1] = measured here: CBR red luminescence, cell number
[2] = measured here: IkBa-CBG green luminescence

| Compound | AC50 [1] | AC50 [2] |
| --- | --- | --- |
| Cc1ccc2nc(N/N=C/c3ccccc3F)nc(-c3ccccc3)c2c1 | 4.61 µM [falling, full curve] | – |
| CC(=O)Nc1ccc(S(=O)(=O)N(C)CC(=O)OC(C)C(=O)N(C)C2CCCCC2)cc1 (stereo not drawn) | 3.16 µM [rising, full curve] | – |
| CC(C)N(C(=O)Cn1cnc2cc([N+](=O)[O-])ccc2c1=O)C(C)C | 5.01 µM [falling, full curve, poor fit] | – |
| N/C(=N\OC(=O)c1cccs1)c1cccc([N+](=O)[O-])c1 | 7.94 µM [rising, partial curve, poor fit] | – |
| COc1ccc(NC(=O)C2C(c3ccccc3)C2(Cl)Cl)c(OC)c1 (stereo not drawn) | 35.5 µM [rising, single point] | – |
| CC(=O)Nc1cccc(Nc2nc(-c3ccccc3)nc3ccccc23)c1 | 35.5 µM [falling, single point] | – |
| COc1cc(OC)c(NC(=O)C2CCCN2C(=O)OCc2ccccc2)cc1Cl (stereo not drawn) | 2.51 µM [rising, partial curve, poor fit] | – |
| O=[N+]([O-])c1ccc(N2CCN(CC(O)COc3ccccc3)CC2)cc1 (stereo not drawn) | 11.2 µM [rising, partial curve] | – |
| CCOCc1c(C(=O)Nc2ccc3nc(N4CCOCC4)sc3c2)oc2ccccc12 | 23.1 µM [falling, single point] | – |
| CN(C)S(=O)(=O)c1cccc(C(=O)OCC(=O)c2ccc3c(c2)NC(=O)CO3)c1 | 35.5 µM [falling, single point] | – |
| CCOc1ccc(C(=O)Nc2cccc(C(=O)O)c2C)cc1Cl | 16.4 µM [falling, partial curve] | – |
| Cc1ccc(Cn2nnc3c(=O)[nH]c(C4CCN(S(=O)(=O)c5ccccc5)CC4)nc32)cc1 | 35.5 µM [falling, single point] | – |
| Cc1ccccc1Oc1cc(-n2ncc(Cl)c(Cl)c2=O)ncn1 | 4.11 µM [falling, full curve] | 3.66 µM [rising, full curve] |
| Cn1c(=O)n(C)c2cc([N+](=O)[O-])c(N3CCN(C(=O)c4ccc(Cl)cc4)CC3)cc21 | 0.562 µM [falling, partial curve, poor fit] | – |
| Cc1ccc(OCC(=O)O/N=C(\N)Cc2ccc(Cl)cc2)cc1 | 12.6 µM [rising, partial curve, poor fit] | – |
| COc1ccc(OC)c(C2=NOC(C(=O)Nc3cccnc3)C2)c1 (stereo not drawn) | 16.4 µM [falling, partial curve, poor fit] | – |
| CC(=O)Nc1ccc(-c2nc3ccccc3o2)cc1 | 11.2 µM [falling, single point] | – |
| CCc1ccccc1OCC(=O)Nc1cccc(S(=O)(=O)NC2=NCCC2)c1 | 13 µM [falling, partial curve, poor fit] | – |
| CCc1ccc(OCCNC(=O)c2ccc(S(=O)(=O)N(C)C)cc2)cc1 | 2.91 µM [falling, single point] | – |
| O=C(O)CC1(CC(=O)Nc2cc3ccccc3cn2)CCCCC1 | 11.2 µM [falling, partial curve, poor fit] | – |

| Compound | AC50 [1] | AC50 [2] |
| --- | --- | --- |
| O=C(Oc1c(CN2CCOCC2)cc(Cl)c2cccnc12)c1ccc(F)cc1 | 7.31 µM [rising, partial curve] | 2.06 µM [falling, full curve, poor fit] |
| COc1cccc(C(=O)Nc2c(C)nn(-c3ccccc3)c2C)c1 | 5.01 µM [rising, partial curve] | – |
| COc1ccccc1C(=O)NNC(=O)c1ccc(F)cc1 | 8.2 µM [falling, partial curve, poor fit] | – |
| CN1CCN(C(=O)c2ccc3c(c2)N(Cc2ccc(Cl)cc2)C(=O)c2ccccc2S3=O)CC1 (stereo not drawn) | 0.231 µM [falling, full curve, poor fit] | – |
| COc1ccccc1/C=C(/C#N)C(=O)O | 35.5 µM [rising, single point] | – |
| CCN(CC)CCNC(=O)c1ccc(NC(=O)c2ccc(C(=O)c3ccccc3)cc2)cc1 | 2.06 µM [rising, partial curve, poor fit] | – |
| CCCCOc1ccccc1C1CC(=O)NC2=C1C(=O)CCC2 (stereo not drawn) | 22.4 µM [rising, single point] | 12.6 µM [falling, partial curve] |
| O=C(Nc1ccc2c(c1)OCO2)c1ccc(NC2CC2)c([N+](=O)[O-])c1 | 11.6 µM [falling, partial curve] | – |
| O=C(CCl)Nc1c2c(nn1-c1ccccc1)CSC2 | 22.4 µM [falling, single point] | – |
| COc1ccc(S(=O)(=O)N2CCCC2)cc1C(=O)O | – | 35.5 µM [rising, partial curve, poor fit] |
| CCc1ccc(OCC(=O)Nc2ccc(S(=O)(=O)Nc3ccccn3)cc2)cc1 | 22.4 µM [falling, single point] | – |
| Cc1c(C(=O)OCC[N+]2(C)CCCCC2)oc2ccccc12 | 12.6 µM [rising, partial curve] | – |
| Nc1ncnc2c1ncn2C1OC(COP(=O)(O)O)C(O)C1O (stereo not drawn) | – | 11.2 µM [falling, partial curve] |
| COC(=O)N1C(=O)[C@](c2ccc(Cl)cc2)(C(C)C)N1C(=O)OC | 3.16 µM [falling, partial curve] | – |
| Cc1c(NC(=O)c2cc(-n3cnnc3)ccc2Cl)cccc1-c1nc2ccccc2s1 | 16.4 µM [falling, partial curve, poor fit] | 7.31 µM [rising, partial curve, poor fit] |
| O=[N+]([O-])c1ccc(SCc2c(F)cccc2Cl)nc1 | 7.08 µM [rising, partial curve, poor fit] | – |
| COc1ccc(S(=O)(=O)N2CCCCC2)cc1NC(=O)Cn1cnc2c1c(=O)n(C)c(=O)n2C | 20.6 µM [falling, partial curve, poor fit] | – |
| Cc1nn(-c2nc3ccccc3[nH]2)c(N)c1-c1ccc(Cl)cc1 | 0.316 µM [rising, full curve, poor fit] | – |
| CC(=NCc1cccc(Cl)c1)c1nc(-c2ccco2)oc1O | 2.06 µM [falling, partial curve, poor fit] | – |

An excerpt from above in order of molecular weight, low to high.

| Compound | AC50 [1] | AC50 [2] |
| --- | --- | --- |
| COc1ccccc1/C=C(/C#N)C(=O)O | 35.5 µM [rising, single point] | – |
| COC(=O)N1C(=O)[C@](c2ccc(Cl)cc2)(C(C)C)N1C(=O)OC | 3.16 µM [falling, partial curve] | – |
| CN1CCN(C(=O)c2ccc3c(c2)N(Cc2ccc(Cl)cc2)C(=O)c2ccccc2S3=O)CC1 (stereo not drawn) | 0.231 µM [falling, full curve, poor fit] | – |
